Source: US20190185507A1 (priority 2016, published 2019)
Some results were stated once for a whole list of compounds, not compound by compound.

Test system: HCV (Jc-1 Wild-type virus)
Experiment: Efficacy testing of Sofosbuvir and n-Propyl-Sofosbuvir in HCV-infected Huh7.5 cells, quantitative PCR of HCV RNA in supernatant
Assay type: cell-based, Hepatitis C virus
Conditions: two-time application, highest drug concentrations
Protocol: HCV histochemistry and determination of virus titers. To determine virus titers, the protocol described by Linden bach et al. (2005) is slightly modified. 1×10^4 Huh-7.5 cells or 0.7×10^4 Lunet cells were seeded per 96-well 24 h prior to infection. Six wells are infected simultaneously with the same dilution of filtered cell culture supernatants of HCV transfected or infected cells. Usually, the first dilution is a 1:10 dilution followed by 1:6 dilutions. 72 h after infection, the cells are washed once with PBS and then fixed in ice-cold methanol for 20 min at −20° C. Afterwards, the cells are washed with PBS and then permeabilized with 0.5% Triton X-100 in PBS for 5 min at RT. […] To detect the HCV positive cells, the wells are first washed again three times with PBS and then the HRP activity is detected by the addition of 30 μl Carbazole substrate/96-well for 15 min at RT. Afterwards, the substrate is replaced with water and the wells were analyzed by light microscopy for positive cells. The 50% tissue culture infectious dose (TCID50) is calculated based on the methods described by Spearman and Karber. By this, the concentrations of a virus isolation needed to infect 50% of a given number of wells is determined (Spearman, 1908). qPCR of viral supernatant. […] A Power SYBR Green RNA-to-Ct 1-step kit (Applied Biosystems) is used to quantify the amount of HCV RNA. […]

Compound	viral RNA reduction
CC(C)OC(=O)[C@H](C)N[P@](=O)(OC[C@H]1O[C@@H](n2ccc(=O)[nH]c2=O)[C@](C)(F)[C@@H]1O)Oc1ccccc1 [Sofosbuvir, (S)-isopropyl 2-(((S)-(((2R,3R,4R,5R)-5-(2,4-dioxo-3,4-dihydropyrimidin-1(2H)-yl)-4-fluoro-3-hydroxy-4-methyltetrahydrofuran-2-yl)methoxy)(phenoxy)phosphoryl)-amino)propanoate]	more than 1 log
CCCOC(=O)[C@H](C)N[P@](=O)(OC[C@H]1O[C@@H](n2ccc(=O)[nH]c2=O)[C@](C)(F)[C@@H]1O)Oc1ccccc1 [n-Propyl-Sofosbuvir, (S)-n-propyl 2-(((S)-(((2R,3R,4R,5R)-5-(2,4-dioxo-3,4-dihydropyrimidin-1(2H)-yl)-4-fluoro-3-hydroxy-4-methyltetrahydrofuran-2-yl)methoxy)(phenoxy)phosphoryl)-amino)propanoate]	more than 1 log
